Test results taken from patent US20230364032A1, “USE OF 2-HOBA TO TREAT ATHEROSCLEROSIS” (Vanderbilt University, priority 2020, published 2023).
Entries after “also recorded” stand apart in the source; their conditions may differ.

Assay: Plasma lipids and lipoprotein distribution
Type: in vivo, mouse

Compound: NCc1ccccc1O [2-HOBA, 2-hydroxybenzylamine]
- plasma total cholesterol and triglyceride levels (female Ldlr−/− mice, western diet 16 weeks, vs vehicle or 4-HOBA): absence of changes; also recorded: not significantly different
- plasma total cholesterol levels (male Ldlr−/− mice, 1 g/L, vs water): did not affect; also recorded: does not affect
